Source: US20250003877A1, “Silyl Bridged Dyes” (priority 2021, published 2025)
Some of these results come from one statement about several compounds together.

Details: for red-shift compared to dimethylsilyl counterpart: vs 001 (for 007) or vs 020 (for 021, 022), excitation and emission; for brightness: PBS

SMILES | red-shift compared to dimethylsilyl counterpart | ϕ (Hoechst probe in PBS) | brightness
C=C[Si]1(C=C)c2cc3c(cc2C(c2ccccc2C)=c2cc4c(cc21)=[N+](C)CC4)CCN3C [Compound 021, 1,9-Dimethyl-5-(o-tolyl)-11,11-divinyl-2,3,7,8,9,11-hexahydrosilino[3,2-f:5,6-f]diindol-1-ium] | 12-22 nm |  | 
Cc1ccccc1C1=c2cc3c(cc2[Si](c2ccccc2)(c2ccccc2)c2cc4c(cc21)CCN4C)=[N+](C)CC3 [Compound 022, 1,9-Dimethyl-11,11-diphenyl-5-(o-tolyl)-2,3,7,8,9,11-hexahydrosilino[3,2-f:5,6-f′]diindol-1-ium] | 12-22 nm |  | 
CN1CCN(c2ccc3[nH]c(-c4ccc5[nH]c(-c6ccc(OCCC[Si@]7(C)c8cc(N(C)C)ccc8[C@]8(OC(=O)c9ccccc98)c8ccc(N(C)C)cc87)cc6)nc5c4)nc3c2)CC1 [Compound 061, (5s,10s)-3,7-Bis(dimethylamino)-5-methyl-5-(3-(4-(5-(4-methylpiperazin-1-yl)-1H,1′H-[2,5′-bibenzo[d]imidazol]-2′-yl)phenoxy)propyl)-3′H,5H-spiro[dibenzo[b,e]siline-10,1′-isobenzofuran]-3′-one] |  | < 0.02 | < 130 M⁻¹ cm⁻¹
CN1CCN(c2ccc3[nH]c(-c4ccc5[nH]c(-c6ccc(OCCC[Si@]7(C)c8cc(N(C)C)ccc8[C@@]8(OC(=O)c9ccccc98)c8ccc(N(C)C)cc87)cc6)nc5c4)nc3c2)CC1 [Compound 062, (5r,10r)-3,7-Bis(dimethylamino)-5-methyl-5-(3-(4-(5-(4-methylpiperazin-1-yl)-1H,1′H-[2,5′-bibenzo[d]imidazol]-2′-yl)phenoxy)propyl)-3′H,5H-spiro[dibenzo[b,e]siline-10,1′-isobenzofuran]-3′-one] |  |  | < 130 M⁻¹ cm⁻¹
